In PubChem BioAssay AID743266 (National Center for Advancing Translational Sciences (NCATS), 2014):
The whole screen tested about 410,000 compounds, of which about 310 (0.076%) were called active. This list was built around the results that the source calls inconclusive (neither active nor inactive); the mix of calls is not that of the screen. The call rests on the fitted dose curve; in most records, active means well fitted activation curve with a large enough effect; inconclusive means small, poorly fitted or top-dose-only effect, or another doubt; inactive means no such curve, though single readings can be large or run the other way. Potencies beside an inconclusive call are fits to weak or partial responses and may not hold up.

Sequences of proteins named here, by UniProt entry; tags and fusion partners are left off. A change or cut given only in a name is not applied to a line headed by its entry.
UniProt Q03431: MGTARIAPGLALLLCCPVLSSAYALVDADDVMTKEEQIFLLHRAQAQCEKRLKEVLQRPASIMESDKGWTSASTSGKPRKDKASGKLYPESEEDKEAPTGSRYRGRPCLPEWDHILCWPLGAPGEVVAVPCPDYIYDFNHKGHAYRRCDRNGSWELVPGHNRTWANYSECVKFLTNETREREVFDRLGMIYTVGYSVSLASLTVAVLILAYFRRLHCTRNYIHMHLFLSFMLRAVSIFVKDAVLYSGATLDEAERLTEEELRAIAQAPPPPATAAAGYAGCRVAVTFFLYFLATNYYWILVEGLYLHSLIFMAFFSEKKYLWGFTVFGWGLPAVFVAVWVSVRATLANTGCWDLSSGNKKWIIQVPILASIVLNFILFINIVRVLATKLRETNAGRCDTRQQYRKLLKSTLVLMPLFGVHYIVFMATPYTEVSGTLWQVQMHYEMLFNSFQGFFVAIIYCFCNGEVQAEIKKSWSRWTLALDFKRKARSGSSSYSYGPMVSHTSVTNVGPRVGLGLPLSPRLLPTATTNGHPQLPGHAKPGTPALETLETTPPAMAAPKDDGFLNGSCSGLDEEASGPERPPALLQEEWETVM

biological target: Parathyroid hormone/parathyroid hormone-related peptide receptor (Homo sapiens) (UniProt Q03431); test: qHTS for PTHR1 Agonists: Primary Screen; details: HEK293 GP2 PTHR1 cells, GloSensor cAMP luminescence, 1 h; activation: at 115 µM (top of the series) unless noted; series mostly up to 115 µM; further: nearly all actives have a fitted effect of over 55% in size
Outline: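 HEK-293-derived GP2 cells expressing PTHR1 and a GloSensor cAMP reporter, 3,000/well, plated overnight, given luciferin plus IBMX (each 0.5 mM as added) for 1 h at 37 °C, then compound for 1 h at 37 °C. Luminescence was read after 15 min at room temperature.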
Potency means the concentration at half of the fitted maximal effect.

Potency, inconclusive:
CCN(CCn1cccn1)C(=O)CC1C(=O)NCCN1Cc1cc(OC)cc(OC)c1 (stereo not drawn) 89.1 µM [activator, single point]
Nc1c(C(=O)NCc2cccnc2)sc(=S)n1-c1ccccc1 56.2 µM [activator, single point]
COc1ccc(S(=O)(=O)N2CN(Cc3ccco3)c3nc4ccccc4nc32)cc1 70.8 µM [activator, single point]
N#CCCC1(CCC#N)c2ccccc2C(=O)c2ccccc21 10 µM [activator, full curve, poor fit]
Clc1ccc(-c2ccnc3nc(N4CCOCC4)nn23)c(Cl)c1 31.6 µM [activator, partial curve]
COc1ccc(C(=O)c2c(C)c3ccccc3n2CC(O)CNC(C)C)cc1 (stereo not drawn) 50.1 µM [activator, partial curve, poor fit]
CCOC(=O)Nc1ccc2c(c1)N(C(=O)CCN(CC)CC)c1ccccc1CC2 14.1 µM [activator, partial curve, poor fit]
COc1ccc(C(=O)NCc2nnc(SCC(=O)NCc3ccc(F)cc3)o2)cc1 28.2 µM [activator, single point]
O=C(Nc1ccc(Cl)cc1)c1csc(-c2ccccc2)n1 44.7 µM [activator, single point]
O=C(NC1CCN(C(=O)Nc2cccc(F)c2)CC1)c1ccco1 141 µM [activator, single point]
Cc1ccc(-n2ncc(C(=O)NCCN3CCCC3)c2C2CCN(C(=O)OC(C)(C)C)CC2)cc1 63.1 µM [activator, partial curve, poor fit]
CC(c1ccccc1)C1C(C#N)=C(N)OC2=C1C(=O)CC(C)(C)C2 (stereo not drawn) 50.1 µM [activator, partial curve, poor fit]
CCOCC(=O)Nc1cc([N+](=O)[O-])ccc1C 1.08 µM [activator, full curve, poor fit]
NC(=O)c1csc(-c2ccncc2)n1 44.7 µM [activator, single point]
CCCCN(CC)Cc1ccc(CNC(=S)Nc2ccccc2F)o1 126 µM [activator, single point]
COc1nc(Nc2ccc(OC)c(Cl)c2)nc(OC)n1 7.08 µM [activator, single point]
Cc1nc2sccn2c(=O)c1S(=O)(=O)Nc1ccc(N2CCOCC2)cc1 126 µM [activator, single point]
Cc1cc(=O)[nH]c2nnc(SCc3c(F)cccc3Cl)n12 17.8 µM [activator, full curve, poor fit]
COc1ccc(/C=C/C(=O)O)cc1S(=O)(=O)N1CCC(C)CC1 141 µM [activator, single point]
Cc1cc(-n2c(C)cc(C(=O)CN3C(=O)NC4(CCCC4)C3=O)c2C)no1 1 µM [activator, full curve, poor fit]
CC(C)C(NC(=O)CC12CC3CC(CC(C3)C1)C2)C(=O)O (stereo not drawn) 31.6 µM [activator, partial curve, poor fit]
O=C(O)c1ccc(CNCc2cccc(Cl)c2Cl)cc1 3.55 µM [activator, partial curve, poor fit]
O=C1CC(C(=O)N(c2ccccc2)C(C(=O)NC2CCCC2)c2ccncc2)CS1 (stereo not drawn) 44.7 µM [activator, partial curve, poor fit]
CCO/C=C1/C(=O)N(C)C(=O)c2cc(OC)ccc21 25.1 µM [activator, partial curve]
CC(=O)NS(=O)(=O)c1ccc(NC(=O)c2ccc(NC(=O)c3cccs3)cc2)cc1 112 µM [activator, single point]

A portion taken from the entries so far:
Potency, inconclusive:
CCO/C=C1/C(=O)N(C)C(=O)c2cc(OC)ccc21 25.1 µM [activator, partial curve]
CC(=O)NS(=O)(=O)c1ccc(NC(=O)c2ccc(NC(=O)c3cccs3)cc2)cc1 112 µM [activator, single point]

Next part:

Potency, inactive:
Cc1c(C(=O)N2CCC(C)CC2)c(S(=O)(=O)NCc2ccc(Cl)cc2)c(C)n1C
CCOc1ccccc1C(=O)N(Cc1cc(OC)c(OC)c(OC)c1)c1ccccn1
Cc1cccc(NC(=O)CN2C(=O)N/C(=C/c3ccc(C)o3)C2=O)c1
Cc1ccc(S(=O)(=O)Nc2ccc(Cl)cc2)cc1NC(=O)c1cc2c(s1)CCCC2
Cc1ccc(S(=O)(=O)CCC(=O)Nc2ccc(OC(F)(F)F)cc2)cc1
CCN1C(=O)[C@H]2[C@@H](c3ccc(C)cc3)N3C(=O)N(c4ccc(OC)cc4)C(=O)[C@@]3(CC)[C@H]2C1=O
Cc1cccc(OCCCN2CCCCCC2)c1
CCc1ccc(NC(=S)NC2CC3CCCC(C2)N3Cc2cccs2)cc1 (stereo not drawn)
COc1ccc(S(=O)(=O)N2CCCC(C(=O)NCc3ccncc3)C2)cc1Cl (stereo not drawn)

activation, inconclusive:
COc1ccc(C(=O)O)cc1Nc1cc(C)nc2ncnn12 33.7% [activator]
Clc1ccc(Cn2c(-c3cccnc3Cl)nc3ccccc32)c(Cl)c1 1.73% [activator] [at 57.5 µM]
COc1cc(/C=N/O)cc(Br)c1OCc1cccc(Cl)c1 -25.2% [activator] [at 57.5 µM]
Cc1ccc(CNC(=O)c2cc(-c3ccccc3)nn2CC2CC(c3cccnc3)=NO2)cc1 (stereo not drawn) 38.2% [activator]
Cc1cc2[nH]c(=O)c(=O)[nH]c2cc1S(=O)(=O)NC1CCCCC1C (stereo not drawn) 34.6% [activator]
C=CCn1c(SCC2CCCCO2)nc2sc(CC)cc2c1=O (stereo not drawn) -78.1% [activator]
Cc1cc(C)n(NC(=S)NC2CCCC2)c(=O)c1C#N -44.8% [activator]
CCCn1c(O)c(N=NC(=O)CNC(=O)Cc2ccc(OC)cc2)c2ccccc21 38% [activator]
Cc1cccc(-c2ncc(S(=O)(=O)C(C)(C)C)c(N)n2)c1 -50.2% [activator]
